For 18 compounds, cell number change and AC50 results are on record in PubChem BioAssay AID2685 (National Center for Advancing Translational Sciences (NCATS), 2010).

Structures are written as SMILES. The list shows a part of the results. Further columns of the screen follow, without active or inactive calls. Compounds called inactive in the main read-out are mostly missing here. Potencies come from curve fits of mixed quality, noted in brackets.

The nature of this assay: qHTS Assay for Lipid Storage Modulators in Drosophila S3 Cells.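 On cell number change: cells counted by Cell Tracker Red CMTPX staining in the red channel.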 Conditions: BODIPY lipid droplet fluorescence, 18-24 h; for cell number change: measured here: cell count max response, cells fed with added oleic acid. In a few lines: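 Drosophila S3 cells got compounds at several concentrations plus oleic acid (400 uM solution). Laser-scanning cytometry with 488 nm excitation read lipid droplets at 500-530 nm and cells at 575-640 nm. Percent activity was relative to 20 uM Triacsin C.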

Where [1] appears, read: measured here: lipid fluorescence (Fed channel) AC50, cells fed with added oleic acid.
Where [2] appears, read: measured here: cell number channel AC50, cells fed with added oleic acid.

Take `Cc1ccc2c(c1)Sc1ccccc1CC2=O`: the cell number change is 20.6%. For the same compound, the AC50 under setting [1] is 16400 nM [rising, single point].

Take `COC(=O)c1c(NC(=O)C2c3ccccc3Oc3ccccc32)sc(C)c1C`: the cell number change stood at 193%. Moreover, under setting [2], the AC50 was 29100 nM [rising, single point].

Consider `CCc1ccc(/C=N/NC(=O)c2cc(C3CC3)nc3ccc(Br)cc23)s1`, for which the AC50 reads like this: under setting [2], 411 nM [rising, full curve]; under setting [1], 2310 nM [rising, partial curve].

Turning to `COc1ccc(-c2nnc(SCC(=O)Nc3ncc(C)s3)n2-c2ccccc2)cc1OC`, the cell number change is 17.7%. Also, the AC50 under setting [1] is 16400 nM [rising, partial curve].

Consider `COc1ccc(/C=N/NC(=O)Cn2cnc3c2c(=O)n(C)c(=O)n3C)c(OC)c1OC`, for which the cell number change is -14.1%. For the same compound, the AC50 under setting [1] is 146 nM [falling, full curve, poor fit].

Regarding `Cc1ccc(NC2=C([N+](=O)[O-])CS(=O)(=O)C2)cc1`, the cell number change came out at 35.1%. The half-maximal activity concentration (AC50) under setting [2] was 184 nM [rising, full curve].

With `COc1cc(S(=O)(=O)NCC2CCCO2)c(OC)cc1Cl` (configuration not stated), the cell number change was 0.651%. Further, the AC50 under setting [2] is 92 nM [falling, full curve, poor fit].

On to `CC(C)(C)c1ccc(C(CC(=O)O)NC(=O)C23CC4CC(CC(C4)C2)C3)cc1` (configuration not stated), for which the cell number change is -12.4%.

As to `COc1ccccc1/C=C1\SC(=O)N(CC(=O)NCCCn2ccnc2)C1=O`, the cell number change is -7.63%. The AC50 under setting [1] was 29100 nM [falling, single point].

For the compound `COCC1CCCCN1C(=O)c1cc(COc2ccc3ncccc3c2)on1` (configuration not stated), the cell number change was -92.7%. Besides, the AC50 under setting [2] was 11600 nM [falling, partial curve]. Further, the AC50 under setting [1] is 1160 nM [falling, full curve].

As for `COC(=O)C1=C(C)N(Cc2ccccc2)C(=NCCc2ccccn2)N[C@H]1c1cccc(F)c1`, the cell number change was -1.29%.

With `CCc1ccccc1NS(=O)(=O)c1cc(C)ccc1OC`, the cell number change is -3.64%. Under setting [1], the AC50 was 10300 nM [rising, partial curve].

`O=C(Nc1ccccc1Cl)c1cnccn1`: the cell number change was -0.597%.

On to `CCOc1ccc(S(=O)(=O)N(CCO)CCO)cc1-c1nc2c(C(C)(C)C)nn(C)c2c(=O)[nH]1`, for which the cell number change is 35.3%. The AC50 under setting [2] was 14600 nM [rising, single point].

In the case of `Cc1cc(N2CCOCC2)nc(SCc2c(Cl)cccc2Cl)n1`, the cell number change is 9.52%.

Turning to `COc1ccccc1/C=C/C1=NC(=C\N(C)C)/C(=O)O1`, under setting [2], the half-maximal activity concentration (AC50) was 58 nM [rising, full curve, poor fit].

For `CCSc1nnc(-c2c[nH]c3ccccc23)o1`, the cell number change was 47.7%. Under setting [2], the AC50 was 259 nM [rising, full curve]. The AC50 under setting [1] is 1460 nM [rising, partial curve].

Take `COc1ccc([C@@H]2C[C@@H](c3ccccc3)Oc3cc(OC)cc(OC)c32)cc1`: the cell number change was found to be 13.2%.

For orientation: AC50 means the midpoint of the concentration-response curve, whichever way the signal moves. Low values mean activity at low concentration, high ones activity only at high concentration.
